Measurements taken from US8044201B2, “Stem cell cultures” (The Scripps Research Institute, priority 2008, dated 2011).
Some entries share one result that the patent states for a list of compounds.

System: hESCs
Assay: ALP positive colony formation by dissociated hESCs (clonal / low-density survival assay)
Format: cell-based, human
Settings: Matrigel-coated plate, after enzymatic dissociation
Experimental: Human ESC lines H1, HUES7 and HUES9 were cultured on irradiated MEF feeder cells in DMEM-F12 supplemented with 2 mM L-glutamine, 1× nonessential amino acids, 20% serum replacement (Invitrogen) and 10 ng/ml basic Fibroblast growth factor (Invitrogen). Chemically-defined and feeder-free hESC culture was described previously (Yao, S. et al., Proc Natl Acad Sci USA 103 (18):6907-6912 (2006)). Briefly, hESCs were grown on Matrigel-coated tissue culture plates in N2B27-CDM (DMEM-F12 supplemented with 1× N2 supplements, 1× B27 supplements, 2 mM L-glutamine, 0.11 mM 2-mercaptoethanol, 1× nonessential amino acids, and 0.5 mg/ml BSA (fraction V)) and 20 ng/ml bFGF. Human ESCs were passaged every 5-6 days with 0.05% trypsin.
For clonal survival assays, single hESCs were diluted to clonal density and plated onto 96-well Matrigel-coated plate. For low-density survival assays, 500 cells were plated onto 96-well Matrigel-coated plate. To visualize hESC colonies, cultures were fixed in 4% paraformaldehyde in PBS for 5 min, washed once in PBS, then stained for alkaline phosphatase activity as described in manufacturer's instructions. ALP positive colonies were counted on an inverted microscope.

Row | SMILES | enhancement of survival of single hESCs
1 | O=S(=O)(NCC1CC1)c1ccc(Nc2nccc(N3CCCc4cc(O)ccc43)n2)cc1 [Ptn, N-(cyclopropylmethyl)-4-(4-(6-hydroxy-3,4-dihydroquinolin-1(2H)-yl)pyrimidin-2-ylamino)benzenesulfonamide] | more than 20 fold
2 | O=C(NCc1ccccc1)c1csc(Nc2ccncn2)n1 [Tzv, N-benzyl-2-(pyrimidin-4-ylamino)thiazole-4-carboxamide] | more than 20 fold
